# Source: the supplement of paper PMC8728848
# This is one part of the list.
# B1: AFL6 (Aspergillus fumigatus), Q4WKJ1 (protein)
# chain: MSFHLTAEDIRIEDGHRLVARLRNADGDLQDASIDLNTCLGNDNGHFQWDGVDFSHSAQDVHFAIEGGGQVPVLRAQLANQDGEFQDADVNLSERIENINGEFVFH
# How the values were obtained:
# Test in all cases: glycan array binding signal (z-score within array); higher = stronger binding
# Details in all cases: glycan notation: IUPAC condensed, linker removed
# [1] = molecular target: Gal(b1-4)GalNAc(b1-3)[Fuc(a1-2)]Gal(b1-4)GlcNAc
# Outline: (§1)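 The Consortium for Functional Glycomics database supplied 3228 glycan arrays, of which those lacking an available protein sequence were dropped. The binding signal, a within-array Z-score, was averaged across arrays of the same protein sequence and across linkers. Negative scores can be read as non-binding.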
# Gal(b1-4)Glc = molecular target: Gal(b1-4)Glc
# Outline: as §1
# Gal(b1-4)Glc6S = molecular target: Gal(b1-4)Glc6S
# Outline: as §1
# Gal(b1-4)GlcNAc = molecular target: Gal(b1-4)GlcNAc
# Outline: as §1
# [2] = molecular target: Gal(b1-4)GlcNAc(a1-6)Gal(b1-4)GlcNAc
# Outline: as §1
# Gal(b1-4)GlcNAc(b1-2)Man = molecular target: Gal(b1-4)GlcNAc(b1-2)Man
# Outline: as §1
# [3] = molecular target: Gal(b1-4)GlcNAc(b1-2)Man(a1-3)Man(b1-4)GlcNAc(b1-4)GlcNAc
# Outline: as §1
# [4] = molecular target: Gal(b1-4)GlcNAc(b1-2)Man(a1-3)[Gal(b1-4)GlcNAc(b1-2)Man(a1-6)]Man(b1-4)GlcNAc(b1-4)GlcNAc
# Outline: as §1
# [5] = molecular target: Gal(b1-4)GlcNAc(b1-2)Man(a1-3)[Gal(b1-4)GlcNAc(b1-2)Man(a1-6)]Man(b1-4)GlcNAc(b1-4)[Fuc(a1-6)]GlcNAc
# Outline: as §1
# [6] = molecular target: Gal(b1-4)GlcNAc(b1-2)Man(a1-3)[Gal(b1-4)GlcNAc(b1-2)Man(a1-6)][Gal(b1-4)GlcNAc(b1-4)]Man(b1-4)GlcNAc(b1-4)[Fuc(a1-6)]GlcNAc
# Outline: as §1
# [7] = molecular target: Gal(b1-4)GlcNAc(b1-2)Man(a1-3)[Gal(b1-4)GlcNAc(b1-2)Man(a1-6)][GlcNAc(b1-4)]Man(b1-4)GlcNAc(b1-4)[Fuc(a1-6)]GlcNAc
# Outline: as §1
# [8] = molecular target: Gal(b1-4)GlcNAc(b1-2)Man(a1-3)[GlcNAc(b1-2)Man(a1-6)]Man(b1-4)GlcNAc(b1-4)GlcNAc
# Outline: as §1
# [9] = molecular target: Gal(b1-4)GlcNAc(b1-2)Man(a1-3)[GlcNAc(b1-4)][Gal(b1-4)GlcNAc(b1-2)Man(a1-6)]Man(b1-4)GlcNAc(b1-4)GlcNAc
# Outline: as §1
# [10] = molecular target: Gal(b1-4)GlcNAc(b1-2)Man(a1-3)[Man(a1-6)]Man(b1-4)GlcNAc(b1-4)GlcNAc
# Outline: as §1
# [11] = molecular target: Gal(b1-4)GlcNAc(b1-2)Man(a1-6)Man(b1-4)GlcNAc(b1-4)GlcNAc
# Outline: as §1
# [12] = molecular target: Gal(b1-4)GlcNAc(b1-2)Man(a1-6)[GlcNAc(b1-2)Man(a1-3)]Man(b1-4)GlcNAc(b1-4)GlcNAc
# Outline: as §1
# [13] = molecular target: Gal(b1-4)GlcNAc(b1-2)Man(a1-6)[Man(a1-3)]Man(b1-4)GlcNAc(b1-4)GlcNAc
# Outline: as §1
# [14] = molecular target: Gal(b1-4)GlcNAc(b1-2)[Gal(b1-4)GlcNAc(b1-4)]Man(a1-3)[Gal(b1-4)GlcNAc(b1-2)Man(a1-6)]Man(b1-4)GlcNAc(b1-4)GlcNAc
# Outline: as §1
# [15] = molecular target: Gal(b1-4)GlcNAc(b1-2)[Gal(b1-4)GlcNAc(b1-4)]Man(a1-3)[Gal(b1-4)GlcNAc(b1-2)[Gal(b1-4)GlcNAc(b1-6)]Man(a1-6)]Man(b1-4)GlcNAc(b1-4)GlcNAc
# Outline: as §1
# [16] = molecular target: Gal(b1-4)GlcNAc(b1-2)[Gal(b1-4)GlcNAc(b1-4)]Man(a1-3)[GlcNAc(b1-4)][Gal(b1-4)GlcNAc(b1-2)Man(a1-6)]Man(b1-4)GlcNAc(b1-4)GlcNAc
# Outline: as §1
# [17] = molecular target: Gal(b1-4)GlcNAc(b1-2)[Gal(b1-4)GlcNAc(b1-4)]Man(a1-3)[GlcNAc(b1-4)][Gal(b1-4)GlcNAc(b1-2)[Gal(b1-4)GlcNAc(b1-6)]Man(a1-6)]Man(b1-4)GlcNAc(b1-4)GlcNAc
# Outline: as §1
# [18] = molecular target: Gal(b1-4)GlcNAc(b1-2)[Gal(b1-4)GlcNAc(b1-6)]Man(a1-6)[Gal(b1-4)GlcNAc(b1-2)Man(a1-3)]Man(b1-4)GlcNAc(b1-4)GlcNAc
# Outline: as §1
binder,measurement,setting,value
B1,glycan array binding signal (z-score),[1],-0.608
same,glycan array binding signal (z-score),Gal(b1-4)Glc,-0.22
same,glycan array binding signal (z-score),Gal(b1-4)Glc6S,-0.129
same,glycan array binding signal (z-score),Gal(b1-4)GlcNAc,-0.239
same,glycan array binding signal (z-score),[2],-0.548
same,glycan array binding signal (z-score),Gal(b1-4)GlcNAc(b1-2)Man,-0.533
same,glycan array binding signal (z-score),[3],0.116
same,glycan array binding signal (z-score),[4],0.231
same,glycan array binding signal (z-score),[5],0.132
same,glycan array binding signal (z-score),[6],-0.617
same,glycan array binding signal (z-score),[7],-0.574
same,glycan array binding signal (z-score),[8],0.078
same,glycan array binding signal (z-score),[9],-0.216
same,glycan array binding signal (z-score),[10],0.003
same,glycan array binding signal (z-score),[11],0.409
same,glycan array binding signal (z-score),[12],-0.169
same,glycan array binding signal (z-score),[13],-0.459
same,glycan array binding signal (z-score),[14],0.722
same,glycan array binding signal (z-score),[15],-0.644
same,glycan array binding signal (z-score),[16],0.094
same,glycan array binding signal (z-score),[17],-0.429
same,glycan array binding signal (z-score),[18],-0.248

# Exported bar-delimited: entries from further up
binder | measurement | setting | value
B1 | glycan array binding signal (z-score) | [13] | -0.459
same | glycan array binding signal (z-score) | [16] | 0.094
